# According to the supplement of paper PMC6411743:
# Amino acid sequences for entries named in this document (tags omitted). A change or cut given only in a name is not applied to a line headed by its entry.
# UniProt O96017, whole entry: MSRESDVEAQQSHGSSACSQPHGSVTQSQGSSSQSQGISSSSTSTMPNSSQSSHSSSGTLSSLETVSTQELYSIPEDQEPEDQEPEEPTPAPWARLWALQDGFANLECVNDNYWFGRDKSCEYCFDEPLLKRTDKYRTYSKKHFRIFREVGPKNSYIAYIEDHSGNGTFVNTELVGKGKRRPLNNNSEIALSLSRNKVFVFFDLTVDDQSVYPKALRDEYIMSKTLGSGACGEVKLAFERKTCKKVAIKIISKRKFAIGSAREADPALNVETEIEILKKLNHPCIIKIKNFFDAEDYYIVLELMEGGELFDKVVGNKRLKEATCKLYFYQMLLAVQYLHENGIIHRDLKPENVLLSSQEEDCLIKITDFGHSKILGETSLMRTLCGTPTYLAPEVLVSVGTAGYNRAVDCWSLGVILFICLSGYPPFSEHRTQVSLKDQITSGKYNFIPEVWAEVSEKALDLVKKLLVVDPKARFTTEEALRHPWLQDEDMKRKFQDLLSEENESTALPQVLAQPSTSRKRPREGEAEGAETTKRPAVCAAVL
# UniProt P08758: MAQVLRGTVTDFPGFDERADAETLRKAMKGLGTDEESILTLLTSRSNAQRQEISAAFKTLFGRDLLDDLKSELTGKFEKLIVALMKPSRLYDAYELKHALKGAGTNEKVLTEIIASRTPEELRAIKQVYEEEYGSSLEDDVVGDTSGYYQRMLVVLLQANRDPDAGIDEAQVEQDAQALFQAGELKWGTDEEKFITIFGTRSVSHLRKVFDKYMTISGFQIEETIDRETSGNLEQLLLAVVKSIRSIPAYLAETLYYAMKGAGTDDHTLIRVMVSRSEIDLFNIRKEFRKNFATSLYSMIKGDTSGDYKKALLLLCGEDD
# UniProt O95747, whole entry, looked up: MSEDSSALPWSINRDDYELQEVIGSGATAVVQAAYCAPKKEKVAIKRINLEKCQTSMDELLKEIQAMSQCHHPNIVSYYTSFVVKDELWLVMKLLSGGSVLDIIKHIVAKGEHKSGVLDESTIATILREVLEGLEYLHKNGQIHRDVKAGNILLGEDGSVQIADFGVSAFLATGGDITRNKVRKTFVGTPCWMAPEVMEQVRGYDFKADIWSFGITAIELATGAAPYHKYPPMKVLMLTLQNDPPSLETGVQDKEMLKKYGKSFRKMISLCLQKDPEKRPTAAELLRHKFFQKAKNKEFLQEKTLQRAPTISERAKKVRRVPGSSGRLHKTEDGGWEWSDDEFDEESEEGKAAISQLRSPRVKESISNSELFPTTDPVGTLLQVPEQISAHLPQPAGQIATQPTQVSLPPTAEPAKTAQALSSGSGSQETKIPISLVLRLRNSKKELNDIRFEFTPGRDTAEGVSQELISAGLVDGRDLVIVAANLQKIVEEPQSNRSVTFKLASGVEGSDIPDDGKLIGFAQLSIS
# UniProt P06241, whole entry, looked up: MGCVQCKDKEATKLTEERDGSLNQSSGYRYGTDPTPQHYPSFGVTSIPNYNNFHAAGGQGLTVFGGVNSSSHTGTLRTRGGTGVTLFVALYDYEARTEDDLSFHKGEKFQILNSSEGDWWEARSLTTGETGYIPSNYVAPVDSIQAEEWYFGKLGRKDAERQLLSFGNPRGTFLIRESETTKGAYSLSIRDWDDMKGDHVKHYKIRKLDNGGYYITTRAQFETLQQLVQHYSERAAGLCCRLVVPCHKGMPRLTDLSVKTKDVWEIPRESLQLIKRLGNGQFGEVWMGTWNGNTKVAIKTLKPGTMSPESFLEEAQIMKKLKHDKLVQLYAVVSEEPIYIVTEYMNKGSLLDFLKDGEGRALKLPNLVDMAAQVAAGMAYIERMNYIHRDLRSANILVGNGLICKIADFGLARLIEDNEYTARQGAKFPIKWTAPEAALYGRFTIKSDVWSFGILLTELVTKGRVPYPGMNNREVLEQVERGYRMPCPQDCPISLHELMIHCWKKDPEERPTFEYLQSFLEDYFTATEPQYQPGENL
# UniProt P11441: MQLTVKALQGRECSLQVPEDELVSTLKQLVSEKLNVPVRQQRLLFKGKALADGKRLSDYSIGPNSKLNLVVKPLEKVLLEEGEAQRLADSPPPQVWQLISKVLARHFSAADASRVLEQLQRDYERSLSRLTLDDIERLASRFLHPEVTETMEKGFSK
# UniProt P10644, whole entry: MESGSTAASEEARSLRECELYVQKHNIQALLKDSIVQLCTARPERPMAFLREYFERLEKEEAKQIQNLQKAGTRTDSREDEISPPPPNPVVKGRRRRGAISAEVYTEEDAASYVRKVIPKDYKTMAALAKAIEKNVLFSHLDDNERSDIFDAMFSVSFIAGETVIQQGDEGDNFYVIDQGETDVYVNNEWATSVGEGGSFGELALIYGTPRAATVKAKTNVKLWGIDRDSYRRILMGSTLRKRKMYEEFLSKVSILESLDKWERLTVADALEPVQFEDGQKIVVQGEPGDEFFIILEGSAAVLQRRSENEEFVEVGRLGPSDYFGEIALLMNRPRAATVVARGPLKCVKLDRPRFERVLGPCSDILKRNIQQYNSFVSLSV
# UniProt P07355, whole entry: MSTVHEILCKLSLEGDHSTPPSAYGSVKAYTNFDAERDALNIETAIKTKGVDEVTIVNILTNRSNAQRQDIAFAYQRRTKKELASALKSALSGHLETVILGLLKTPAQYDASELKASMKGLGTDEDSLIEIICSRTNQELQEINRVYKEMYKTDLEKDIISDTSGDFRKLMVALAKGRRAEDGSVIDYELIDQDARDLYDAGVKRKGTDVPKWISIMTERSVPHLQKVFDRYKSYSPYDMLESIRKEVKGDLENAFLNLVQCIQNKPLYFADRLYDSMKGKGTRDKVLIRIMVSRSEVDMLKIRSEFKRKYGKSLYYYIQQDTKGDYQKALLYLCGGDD
# UniProt P10398: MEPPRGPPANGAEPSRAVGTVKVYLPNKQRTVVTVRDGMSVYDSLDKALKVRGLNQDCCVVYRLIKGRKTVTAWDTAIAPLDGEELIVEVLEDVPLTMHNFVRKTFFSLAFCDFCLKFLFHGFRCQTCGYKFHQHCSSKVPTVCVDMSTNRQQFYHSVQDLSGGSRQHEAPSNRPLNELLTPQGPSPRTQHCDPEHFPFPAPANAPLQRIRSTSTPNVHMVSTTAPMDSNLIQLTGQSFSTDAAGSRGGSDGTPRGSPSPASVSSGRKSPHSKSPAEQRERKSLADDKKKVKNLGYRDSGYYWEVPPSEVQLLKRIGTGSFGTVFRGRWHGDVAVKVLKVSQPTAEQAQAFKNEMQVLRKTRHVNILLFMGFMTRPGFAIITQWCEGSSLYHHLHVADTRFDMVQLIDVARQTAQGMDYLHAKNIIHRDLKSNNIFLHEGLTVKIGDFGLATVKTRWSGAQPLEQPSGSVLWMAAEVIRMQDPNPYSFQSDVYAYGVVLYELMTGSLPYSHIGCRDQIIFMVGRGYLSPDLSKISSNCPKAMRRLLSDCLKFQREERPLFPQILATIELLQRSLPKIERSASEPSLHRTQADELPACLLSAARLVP
# UniProt P16949: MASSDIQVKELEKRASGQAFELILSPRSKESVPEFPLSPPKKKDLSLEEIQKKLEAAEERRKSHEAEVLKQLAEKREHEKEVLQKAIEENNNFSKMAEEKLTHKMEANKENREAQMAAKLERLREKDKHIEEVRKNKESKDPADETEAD
# UniProt P04234, whole entry: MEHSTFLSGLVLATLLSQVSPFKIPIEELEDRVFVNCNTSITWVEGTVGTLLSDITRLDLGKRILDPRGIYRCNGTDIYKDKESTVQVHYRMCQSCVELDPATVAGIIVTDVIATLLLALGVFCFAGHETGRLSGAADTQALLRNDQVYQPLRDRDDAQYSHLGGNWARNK
# UniProt P16278: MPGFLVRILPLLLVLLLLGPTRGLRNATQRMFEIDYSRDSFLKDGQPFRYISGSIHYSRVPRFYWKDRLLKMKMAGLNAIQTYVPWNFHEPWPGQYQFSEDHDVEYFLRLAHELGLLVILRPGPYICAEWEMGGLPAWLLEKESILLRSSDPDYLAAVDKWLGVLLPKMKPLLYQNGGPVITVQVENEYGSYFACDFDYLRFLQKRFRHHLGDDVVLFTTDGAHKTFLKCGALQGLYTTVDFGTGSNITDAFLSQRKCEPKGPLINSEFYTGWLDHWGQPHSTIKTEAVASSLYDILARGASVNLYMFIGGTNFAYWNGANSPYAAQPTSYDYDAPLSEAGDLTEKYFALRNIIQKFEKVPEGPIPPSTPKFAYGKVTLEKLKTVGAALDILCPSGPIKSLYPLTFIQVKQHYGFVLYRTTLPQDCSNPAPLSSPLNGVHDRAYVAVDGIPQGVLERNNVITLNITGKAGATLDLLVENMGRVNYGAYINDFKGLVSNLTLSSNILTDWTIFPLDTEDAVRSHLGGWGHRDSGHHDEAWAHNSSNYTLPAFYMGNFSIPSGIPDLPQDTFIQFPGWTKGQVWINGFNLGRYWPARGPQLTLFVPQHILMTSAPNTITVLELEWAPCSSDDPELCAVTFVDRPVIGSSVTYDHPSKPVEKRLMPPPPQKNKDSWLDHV
# UniProt P05423: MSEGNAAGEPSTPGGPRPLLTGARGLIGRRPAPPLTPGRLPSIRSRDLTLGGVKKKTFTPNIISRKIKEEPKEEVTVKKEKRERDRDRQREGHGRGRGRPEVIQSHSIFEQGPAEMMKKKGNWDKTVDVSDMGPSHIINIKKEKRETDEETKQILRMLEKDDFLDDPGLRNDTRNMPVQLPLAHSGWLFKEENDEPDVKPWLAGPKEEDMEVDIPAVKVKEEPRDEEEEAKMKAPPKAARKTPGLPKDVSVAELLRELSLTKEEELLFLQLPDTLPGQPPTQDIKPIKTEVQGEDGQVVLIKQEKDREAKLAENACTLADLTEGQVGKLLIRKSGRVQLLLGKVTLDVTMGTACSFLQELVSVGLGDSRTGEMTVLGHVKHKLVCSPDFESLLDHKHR
# UniProt P12955: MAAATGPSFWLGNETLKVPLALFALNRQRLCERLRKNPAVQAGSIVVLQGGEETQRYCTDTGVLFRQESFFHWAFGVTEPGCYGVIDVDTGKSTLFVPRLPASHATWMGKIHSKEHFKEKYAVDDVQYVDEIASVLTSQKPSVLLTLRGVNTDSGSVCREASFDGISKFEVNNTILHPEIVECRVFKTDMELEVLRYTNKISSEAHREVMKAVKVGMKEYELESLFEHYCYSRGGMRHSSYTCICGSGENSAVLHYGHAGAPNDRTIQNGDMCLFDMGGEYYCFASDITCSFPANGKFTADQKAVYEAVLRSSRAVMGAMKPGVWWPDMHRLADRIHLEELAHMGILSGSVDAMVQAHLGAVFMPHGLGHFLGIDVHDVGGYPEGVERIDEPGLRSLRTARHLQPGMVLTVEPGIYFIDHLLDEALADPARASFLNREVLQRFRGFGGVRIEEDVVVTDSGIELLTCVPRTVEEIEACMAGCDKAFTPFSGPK
# UniProt P00492: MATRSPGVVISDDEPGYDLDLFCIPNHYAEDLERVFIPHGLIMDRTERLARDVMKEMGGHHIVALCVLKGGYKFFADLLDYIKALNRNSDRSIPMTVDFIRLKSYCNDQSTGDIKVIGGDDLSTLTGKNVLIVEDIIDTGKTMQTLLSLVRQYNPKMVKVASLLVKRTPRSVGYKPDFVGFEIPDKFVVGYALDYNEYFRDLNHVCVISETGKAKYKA
# UniProt P13598: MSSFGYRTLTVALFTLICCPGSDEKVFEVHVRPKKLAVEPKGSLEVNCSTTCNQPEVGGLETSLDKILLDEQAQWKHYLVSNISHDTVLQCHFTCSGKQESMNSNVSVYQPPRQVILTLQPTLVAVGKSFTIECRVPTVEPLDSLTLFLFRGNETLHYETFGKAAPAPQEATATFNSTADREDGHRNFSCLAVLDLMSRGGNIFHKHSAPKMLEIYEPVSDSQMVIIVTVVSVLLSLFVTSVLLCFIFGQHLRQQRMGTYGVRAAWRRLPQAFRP
# UniProt P11169: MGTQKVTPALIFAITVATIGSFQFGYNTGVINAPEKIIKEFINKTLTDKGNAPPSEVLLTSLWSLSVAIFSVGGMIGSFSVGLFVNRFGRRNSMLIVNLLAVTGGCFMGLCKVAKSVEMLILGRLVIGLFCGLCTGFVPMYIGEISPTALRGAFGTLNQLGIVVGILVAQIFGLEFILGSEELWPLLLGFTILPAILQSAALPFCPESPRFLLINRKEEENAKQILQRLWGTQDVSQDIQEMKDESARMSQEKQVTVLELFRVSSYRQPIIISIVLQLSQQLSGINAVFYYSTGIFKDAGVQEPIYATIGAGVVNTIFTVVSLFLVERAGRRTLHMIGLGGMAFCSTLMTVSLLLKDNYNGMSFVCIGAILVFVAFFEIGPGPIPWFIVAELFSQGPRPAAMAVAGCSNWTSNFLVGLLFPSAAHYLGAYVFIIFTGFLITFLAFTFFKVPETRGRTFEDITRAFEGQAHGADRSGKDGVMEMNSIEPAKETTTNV
# UniProt O95926: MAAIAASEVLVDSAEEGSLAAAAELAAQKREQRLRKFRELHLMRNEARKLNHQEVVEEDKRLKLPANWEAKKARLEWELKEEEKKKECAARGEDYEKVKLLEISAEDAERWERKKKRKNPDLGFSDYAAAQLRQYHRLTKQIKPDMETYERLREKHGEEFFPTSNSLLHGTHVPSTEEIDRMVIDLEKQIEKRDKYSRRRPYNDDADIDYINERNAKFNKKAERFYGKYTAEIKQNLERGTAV
# ± gives the standard deviation of the averaged measurements. The list shows a part of the results, in another mix than the full data.
# Compound: Nc1ncnc2c1ncn2[C@@H]1O[C@H](COP(=O)(O)OP(=O)(O)NP(=O)(O)O)[C@@H](O)[C@H]1O [adenylyl imidodiphosphate]
# Assay: NP40-soluble protein abundance relative to vehicle (solubility fold change) (ratio); higher = more soluble protein in presence of AMP-PNP
# In short: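 Values are fold changes against the detergent-processed vehicle, based on vsn-normalised intensities. Jurkat crude lysate was treated at eight concentrations from 0.1 to 10 mM (10 min at room temperature, then 3 min at 37 °C), solubilised with 0.8% NP40 and benzonase, ultracentrifuged and analysed by TMT-labelled LC-MS/MS over three independent experiments.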
Target,NP40-soluble protein abundance (concentration: 1mM),NP40-soluble protein abundance (concentration: 2mM),NP40-soluble protein abundance (concentration: 4mM),NP40-soluble protein abundance (concentration: 6mM),NP40-soluble protein abundance (concentration: 8mM),NP40-soluble protein abundance (concentration: 10mM)
UniProt O96017 and related entries,0.948 ± 0.042,0.881 ± 0.069,0.915 ± 0.031,0.929 ± 0.014,0.937 ± 0.012,0.892 ± 0.014
HIST1H1E (UniProt P10412),1.04 ± 0.06,1.15 ± 0.09,1.12 ± 0.05,1.25 ± 0.15,1.24 ± 0.23,1.56 ± 0.14
ANXA5 (UniProt P08758),0.993 ± 0.02,0.995 ± 0.054,1.01 ± 0.053,1.1 ± 0.075,1.1 ± 0.042,1.02 ± 0.034
SNRPA1 (UniProt P09661),1.026 ± 0.0055,1.09 ± 0.055,1.12 ± 0.024,1.19 ± 0.052,1.21 ± 0.04,1.25 ± 0.037
UniProt O95747,0.972 ± 0.014,0.963 ± 0.042,0.963 ± 0.05,0.9479 ± 0.0078,0.939 ± 0.031,0.948 ± 0.022
Fyn (UniProt P06241),0.993 ± 0.025,0.962 ± 0.013,0.97 ± 0.042,0.991 ± 0.045,1 ± 0.025,0.965 ± 0.029
UBL4A (UniProt P11441),1.001 ± 0.0077,1.03 ± 0.07,0.969 ± 0.055,0.96 ± 0.037,0.968 ± 0.064,0.945 ± 0.089
SKI (UniProt P12755),0.9926 ± 0.0031,0.9899 ± 0.0034,0.972 ± 0.018,0.982 ± 0.024,0.9848 ± 0.007,0.9898 ± 0.0059
UniProt P11274 and related entries,1.01 ± 0.011,0.986 ± 0.028,1.01 ± 0.017,0.974 ± 0.027,0.981 ± 0.022,0.956 ± 0.018
SLC2A1 (UniProt P11166),1.015 ± 0.005,0.999 ± 0.042,1.02 ± 0.055,0.998 ± 0.029,1.01 ± 0.032,1.01 ± 0.053
UniProt P16298 and related entries,1.01 ± 0.036,0.998 ± 0.028,0.993 ± 0.046,0.931 ± 0.03,0.952 ± 0.049,0.953 ± 0.053
PRKAR1A (UniProt P10644),1.03 ± 0.052,1.01 ± 0.043,1.01 ± 0.044,0.984 ± 0.046,0.986 ± 0.043,0.994 ± 0.059
EEF2 (UniProt P13639),0.96 ± 0.025,0.92 ± 0.036,0.939 ± 0.02,0.966 ± 0.022,0.975 ± 0.019,0.9553 ± 0.0019
ANXA2 (UniProt P07355),0.938 ± 0.056,1 ± 0.099,0.942 ± 0.052,1.04 ± 0.1,1.01 ± 0.057,1.02 ± 0.082
UniProt P06396-2,1.05 ± 0.03,1.07 ± 0.045,1.0378 ± 0.00018,1.04 ± 0.041,1.0267 ± 0.00077,1.07 ± 0.062
O96007 and related entries (UniProt O96033+O96007),1.006 ± 0.0091,0.999 ± 0.026,0.983 ± 0.017,0.986 ± 0.022,0.969 ± 0.029,0.991 ± 0.046
UniProt P10398 and related entries,1.1 ± 0.036,1.07 ± 0.068,1.12 ± 0.061,1.08 ± 0.14,1.07 ± 0.076,1.08 ± 0.082
STMN1 (UniProt P16949),0.982 ± 0.036,1.02 ± 0.042,0.906 ± 0.062,0.901 ± 0.011,0.858 ± 0.018,0.853 ± 0.072
P4HB (UniProt P07237),1.02 ± 0.031,1.02 ± 0.014,0.976 ± 0.043,0.984 ± 0.028,0.955 ± 0.037,0.945 ± 0.057
UniProt P04234,1.01 ± 0.052,0.997 ± 0.04,1.02 ± 0.067,0.989 ± 0.053,1.03 ± 0.056,0.992 ± 0.064

Target,NP40-soluble protein abundance (concentration: 1mM),NP40-soluble protein abundance (concentration: 2mM),NP40-soluble protein abundance (concentration: 4mM),NP40-soluble protein abundance (concentration: 6mM),NP40-soluble protein abundance (concentration: 8mM),NP40-soluble protein abundance (concentration: 10mM)
ACADS (UniProt P16219),0.988 ± 0.035,0.924 ± 0.068,0.9786 ± 0.0077,0.974 ± 0.029,0.999 ± 0.016,0.945 ± 0.016
UniProt P12814 and related entries,1.01 ± 0.037,1.01 ± 0.015,1 ± 0.024,1.03 ± 0.035,1.01 ± 0.055,1.03 ± 0.012
IGLL1 (UniProt P15814),0.995 ± 0.054,1.015 ± 0.01,1.03 ± 0.027,1 ± 0.02,1.02 ± 0.045,0.977 ± 0.02
GTF2F2 (UniProt P13984),1 ± 0.011,1.06 ± 0.023,1.04 ± 0.019,1.07 ± 0.018,1.07 ± 0.015,1.103 ± 0.0083
CTSG (UniProt P08311),1.0006 ± 0.00035,0.9967 ± 0.0072,0.971 ± 0.0081,1 ± 0.011,1.007 ± 0.01,0.977 ± 0.021
UniProt P11177 and related entries,0.994 ± 0.14,0.99 ± 0.074,0.956 ± 0.11,0.918 ± 0.14,0.944 ± 0.099,0.974 ± 0.12
UniProt P11498 and related entries,1.027 ± 0.0052,0.985 ± 0.063,1.02 ± 0.016,0.9804 ± 0.0035,0.984 ± 0.011,0.965 ± 0.027
PFN1 (UniProt P07737),1.06 ± 0.042,1.12 ± 0.15,1.06 ± 0.018,1.08 ± 0.11,1.12 ± 0.026,1.15 ± 0.047
UniProt P04049 and related entries,1.03 ± 0.023,1.06 ± 0.037,1.07 ± 0.04,1.05 ± 0.036,1.06 ± 0.033,1.05 ± 0.032
UniProt P05771 and related entries,1.05 ± 0.019,1.03 ± 0.016,1.04 ± 0.029,1.04 ± 0.012,1.05 ± 0.017,1.04 ± 0.03
TPR (UniProt P12270),1.01 ± 0.035,1.03 ± 0.041,0.979 ± 0.019,0.974 ± 0.057,0.942 ± 0.036,0.976 ± 0.04
LAMP1 (UniProt P11279),1.03 ± 0.059,1.08 ± 0.019,0.985 ± 0.051,1.03 ± 0.06,0.987 ± 0.035,1.03 ± 0.095
COX4I1 (UniProt P13073),0.984 ± 0.019,1.03 ± 0.039,0.99 ± 0.021,0.984 ± 0.03,0.988 ± 0.018,0.958 ± 0.057
UniProt P16278 and related entries,1 ± 0.026,1.02 ± 0.06,1.03 ± 0.05,1.02 ± 0.043,1.01 ± 0.048,1.06 ± 0.054
POLR3D (UniProt P05423),0.982 ± 0.017,1.01 ± 0.02,0.993 ± 0.035,0.961 ± 0.041,0.971 ± 0.037,0.998 ± 0.065
MYL6B (UniProt P14649),1.02 ± 0.042,1.1 ± 0.053,1.01 ± 0.034,0.987 ± 0.051,0.925 ± 0.041,0.962 ± 0.019
UniProt P08240,1.01 ± 0.012,0.996 ± 0.032,1.04 ± 0.016,1.03 ± 0.022,1.06 ± 0.017,1.057 ± 0.0089
H2AFX (UniProt P16104),0.925 ± 0.044,0.984 ± 0.041,0.922 ± 0.033,1.03 ± 0.047,0.997 ± 0.13,1.21 ± 0.075
UniProt P13861 and related entries,0.989 ± 0.02,0.961 ± 0.037,0.971 ± 0.031,0.976 ± 0.035,0.949 ± 0.025,0.951 ± 0.036
RPLP2 (UniProt P05387),1 ± 0.054,0.979 ± 0.034,0.925 ± 0.064,0.914 ± 0.056,0.853 ± 0.028,0.925 ± 0.076

# Copied from above (four entries):
Target,NP40-soluble protein abundance (concentration: 1mM),NP40-soluble protein abundance (concentration: 2mM),NP40-soluble protein abundance (concentration: 4mM),NP40-soluble protein abundance (concentration: 6mM),NP40-soluble protein abundance (concentration: 8mM),NP40-soluble protein abundance (concentration: 10mM)
ACADS (UniProt P16219),0.988 ± 0.035,0.924 ± 0.068,0.9786 ± 0.0077,0.974 ± 0.029,0.999 ± 0.016,0.945 ± 0.016
UniProt P12814 and related entries,1.01 ± 0.037,1.01 ± 0.015,1 ± 0.024,1.03 ± 0.035,1.01 ± 0.055,1.03 ± 0.012
IGLL1 (UniProt P15814),0.995 ± 0.054,1.015 ± 0.01,1.03 ± 0.027,1 ± 0.02,1.02 ± 0.045,0.977 ± 0.02
GTF2F2 (UniProt P13984),1 ± 0.011,1.06 ± 0.023,1.04 ± 0.019,1.07 ± 0.018,1.07 ± 0.015,1.103 ± 0.0083

# Later entries.

Target,NP40-soluble protein abundance (concentration: 1mM),NP40-soluble protein abundance (concentration: 2mM),NP40-soluble protein abundance (concentration: 4mM),NP40-soluble protein abundance (concentration: 6mM),NP40-soluble protein abundance (concentration: 8mM),NP40-soluble protein abundance (concentration: 10mM)
UniProt P04035 and related entries,0.971 ± 0.01,0.98 ± 0.021,0.98 ± 0.022,0.971 ± 0.018,0.978 ± 0.034,0.975 ± 0.027
UniProt P16435 and related entries,1.02 ± 0.019,0.977 ± 0.068,1.01 ± 0.028,0.9816 ± 0.0051,1.002 ± 0.005,0.984 ± 0.022
UniProt P12955 and related entries,0.991 ± 0.025,0.934 ± 0.097,0.972 ± 0.044,0.944 ± 0.027,0.961 ± 0.038,0.916 ± 0.025
UniProt P09564,1.08 ± 0.07,1.1 ± 0.074,1.1 ± 0.091,1.05 ± 0.04,1.07 ± 0.076,1.06 ± 0.071
SSB (UniProt P05455),1.035 ± 0.0037,1.07 ± 0.088,1.01 ± 0.014,1.04 ± 0.013,1.02 ± 0.031,1.02 ± 0.047
UniProt P09543 and related entries,1.01 ± 0.022,0.965 ± 0.053,0.9767 ± 0.0046,0.973 ± 0.025,0.966 ± 0.013,0.959 ± 0.015
HIST1H1B (UniProt P16401),1.052 ± 0.0074,1.18 ± 0.18,1.15 ± 0.11,1.27 ± 0.22,1.32 ± 0.21,1.59 ± 0.19
UniProt P15882 and related entries,0.993 ± 0.023,0.959 ± 0.055,0.965 ± 0.01,0.971 ± 0.02,0.934 ± 0.022,0.925 ± 0.026
UniProt P05388 and related entries,0.99 ± 0.024,0.989 ± 0.062,0.952 ± 0.04,0.98 ± 0.052,0.936 ± 0.055,1.02 ± 0.054
CST3 (UniProt P01034),1.006 ± 0.0046,1.03 ± 0.012,0.9835 ± 0.0016,0.9858 ± 0.0014,0.995 ± 0.014,0.984 ± 0.018
UniProt P13929 and related entries,1 ± 0.041,0.9809 ± 0.0084,1.01 ± 0.076,1.06 ± 0.064,1.05 ± 0.041,1.05 ± 0.033
BAG3 (UniProt O95817),0.974 ± 0.032,0.987 ± 0.039,0.953 ± 0.018,0.983 ± 0.012,0.961 ± 0.044,0.934 ± 0.029
HPRT1 (UniProt P00492),0.978 ± 0.027,0.881 ± 0.074,0.997 ± 0.025,0.981 ± 0.099,1.06 ± 0.091,1 ± 0.1
ICAM2 (UniProt P13598),1.09 ± 0.034,1.1 ± 0.092,1.03 ± 0.079,1.03 ± 0.024,1.02 ± 0.032,0.975 ± 0.076
UniProt P16591 and related entries,0.966 ± 0.056,0.904 ± 0.12,0.913 ± 0.078,0.878 ± 0.093,0.857 ± 0.093,0.821 ± 0.1
SLC2A3 (UniProt P11169),0.976 ± 0.046,0.971 ± 0.073,0.968 ± 0.029,1.03 ± 0.028,1.01 ± 0.049,0.983 ± 0.01
SYF2 (UniProt O95926),1.01 ± 0.013,1.06 ± 0.085,1.07 ± 0.028,1.03 ± 0.058,1.08 ± 0.058,1.12 ± 0.063
UniProt O95864 and related entries,1.01 ± 0.036,1.01 ± 0.02,1.02 ± 0.081,1.06 ± 0.08,1.06 ± 0.062,1.04 ± 0.037
TXNDC12 (UniProt O95881),0.988 ± 0.062,1.04 ± 0.025,0.962 ± 0.099,0.937 ± 0.038,0.91 ± 0.029,0.919 ± 0.083
HSPA5 (UniProt P11021),1.04 ± 0.031,1.08 ± 0.043,1.02 ± 0.034,1.01 ± 0.053,0.988 ± 0.035,1 ± 0.051
